Here are results for 38 sequences from PMC7862700.

The list shows a part of the results, in another mix than the full data. At the low end of the ranking the order means little.

The target of the assay is T1, ETV3L (UniProt Q6ZN32).
T1 sequence: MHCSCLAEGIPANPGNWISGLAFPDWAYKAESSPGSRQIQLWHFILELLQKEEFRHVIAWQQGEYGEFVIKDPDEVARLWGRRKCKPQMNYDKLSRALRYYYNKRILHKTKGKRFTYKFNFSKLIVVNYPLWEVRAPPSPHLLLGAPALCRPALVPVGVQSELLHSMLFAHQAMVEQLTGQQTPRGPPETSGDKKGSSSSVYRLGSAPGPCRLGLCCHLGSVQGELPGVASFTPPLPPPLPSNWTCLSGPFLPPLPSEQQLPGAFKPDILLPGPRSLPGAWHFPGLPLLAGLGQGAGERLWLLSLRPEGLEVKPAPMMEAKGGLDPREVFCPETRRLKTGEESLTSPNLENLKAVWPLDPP
The assay is described as follows: DAPPL (digital affinity profiling via proximity ligation, sequencing). The settings on record: 10 mM Tris-HCl pH 7.5, 50 mM NaCl, 1 mM DTT, 4% glycerol, room temperature, 30 min; GST-TFs on glutathione beads, 16-mer random dsDNA library, 0.1% …; high values mean tight binding; double strand, one strand shown; scale: fold enrichment (6-mer frequency, TF over GST control).
GTCCCT registered a binding signal of 1.16.

CTAAAC registered a binding signal of 1.18.

As to CGATAC, the binding signal was 1.18.

In turn, CCCGAC had a binding signal of 1.41.

Take GACCTG: the binding signal turned out to be 1.33.

As to ATTGCG, the binding signal turned out to be 1.29.

With ACTCTC, the binding signal was 1.49.

Turning to CTCATT, the binding signal came out at 1.47.

With TCCGGA, the binding signal amounted to 2.42.

GTCTTT showed a binding signal of 1.27.

The sequence GCTAAT registered a binding signal of 1.13.

On to GTGCTT, for which the binding signal turned out to be 1.14.

As to GATACG, the binding signal amounted to 1.1.

The sequence TTTGAG came in with a binding signal of 0.971.

With GTTAAC, the binding signal was determined as 1.14.

Sequence CGTCCC gave a binding signal of 1.3.

TCACAG yielded a binding signal of 1.13.

In turn, CTCAAA showed a binding signal of 1.16.

In turn, CTCTAG returned a binding signal of 1.28.

In the case of GTTCAT, the binding signal came out at 1.16.

ACATCC: the binding signal is 2.46.

Take CCTCAC: the binding signal was 1.19.

ACACTT yielded a binding signal of 1.64.

CCGGTA: the binding signal is 1.46.

Sequence CGATAA gave a binding signal of 1.09.

Regarding TTGCTA, the binding signal came out at 1.35.

Consider CATCGA, for which the binding signal amounted to 1.21.

Sequence TCACGA gave a binding signal of 1.04.

Sequence AAACAT returned a binding signal of 1.46.

As for GATGCC, the binding signal was 1.39.

As to TTATCA, the binding signal came out at 1.15.

AGATCC came in with a binding signal of 1.13.

Take GGCTCT: the binding signal came to 1.34.

GCTCAG: the binding signal came out at 1.16.

Sequence TAATTT gave a binding signal of 1.48.

For the sequence AAGATA, the binding signal amounted to 1.09.

ATCGTC: the binding signal was found to be 1.09.

Take TGCTCA: the binding signal worked out at 1.31.
